Measurements taken from US20100022559A1, “BISOXIMES AS FUNGICIDES” (BAYER CROPSCIENCE AG, priority 2006, published 2010).
For at least one compound, name, drawing or mass did not settle the structure. Some entries share one result that the patent states for a list of compounds.

Tested on: Venturia inaequalis
Assay: Venturia test (apple)/protective
Type: in vivo
Conditions: active compound concentration 100 ppm, protective, evaluation 10 days after inoculation

| Compound | efficacy [%] |
| --- | --- |
| CC(=NOCC(C)(C)CON=C(C)c1cccc(C)n1)c1cccc(C)n1 (single isomer, unassigned) [Compound 141] | ≥ 70 |
| CC(=NOCC1(CON=C(C)c2cc(C)cc(C)n2)CCC1)c1cc(C)cc(C)n1 [Compound 562] | ≥ 70 |
| CCCC(=NOCCCON=C(CCC)c1cccc(C)n1)c1cccc(C)n1 [Compound 91] | ≥ 70 |
| CCCc1cccc(C(C)=NOCC(C)CON=C(C)c2cccc(C)n2)n1 (stereo not drawn) [Compound 502] | ≥ 70 |
| CC(=NOC(C)C(C)C(C)ON=C(C)c1cccc(C)n1)c1cccc(C)n1 (mixture of isomers) [Compound 743] | ≥ 70 |
| CC(=NOCC1(CON=C(C)c2cccc(C)n2)CCCC1)c1cccc(C)n1 [Compound 587] | ≥ 70 |
| CC(=NOCC1(CON=C(C)c2cccc(C)n2)CCCCC1)c1cccc(C)n1 [Compound 561] | ≥ 70 |
| C=C(CON=C(CC)c1cccc(C)n1)CON=C(CC)c1cccc(C)n1 [Compound 239] | ≥ 70 |
| CC(=NOCCCON=C(C)c1cc(C)cc(C)n1)c1cc(C)cc(C)n1 [Compound 224] | ≥ 70 |

Tested on: Botrytis cinerea
Assay: Botrytis test (bean)/protective
Type: in vivo
Conditions: active compound concentration 250 ppm, protective, evaluation 2 days after inoculation

| Compound | efficacy [%] |
| --- | --- |
| CC(=NOCC1(CON=C(C)c2cccc(C)n2)CCC1)c1cccc(C)n1 [Compound 289] | ≥ 70 |
| CC(=NOCC(C)(C)CON=C(C)c1cccc(C)n1)c1cccc(C)n1 (single isomer, unassigned) [Compound 141] | ≥ 70 |
| CC(=NOCC1(CON=C(C)c2cc(C)cc(C)n2)CCC1)c1cc(C)cc(C)n1 [Compound 562] | ≥ 70 |
| CCCC(=NOCCCON=C(CCC)c1cccc(C)n1)c1cccc(C)n1 [Compound 91] | ≥ 70 |
| CCCc1cccc(C(C)=NOCC(C)CON=C(C)c2cccc(C)n2)n1 (stereo not drawn) [Compound 502] | ≥ 70 |
| CC(=NOC(C)C(C)C(C)ON=C(C)c1cccc(C)n1)c1cccc(C)n1 (mixture of isomers) [Compound 743] | ≥ 70 |
| CC(=NOCC1(CON=C(C)c2cccc(C)n2)CCCC1)c1cccc(C)n1 [Compound 587] | ≥ 70 |
| CC(=NOCC1(CON=C(C)c2cccc(C)n2)CCCCC1)c1cccc(C)n1 [Compound 561] | ≥ 70 |
| C=C(CON=C(CC)c1cccc(C)n1)CON=C(CC)c1cccc(C)n1 [Compound 239] | ≥ 70 |
| CC(=NOCCCON=C(C)c1cc(C)cc(C)n1)c1cc(C)cc(C)n1 [Compound 224] | ≥ 70 |

Tested on: Puccinia recondita
Assay: Puccinia test (wheat)/protective
Type: in vivo
Conditions: active compound concentration 500 ppm, protective, evaluation 8-10 days after inoculation

| Compound | efficacy [%] |
| --- | --- |
| CC(=NOCC1(CON=C(C)c2cccc(C)n2)CCC1)c1cccc(C)n1 [Compound 289] | ≥ 70 |
| CC(=NOCC(C)(C)CON=C(C)c1cccc(C)n1)c1cccc(C)n1 (single isomer, unassigned) [Compound 141] | ≥ 70 |
| CC(=NOCC1(CON=C(C)c2cc(C)cc(C)n2)CCC1)c1cc(C)cc(C)n1 [Compound 562] | ≥ 70 |
| CCCC(=NOCCCON=C(CCC)c1cccc(C)n1)c1cccc(C)n1 [Compound 91] | ≥ 70 |
| CCCc1cccc(C(C)=NOCC(C)CON=C(C)c2cccc(C)n2)n1 (stereo not drawn) [Compound 502] | ≥ 70 |
| CC(=NOC(C)C(C)C(C)ON=C(C)c1cccc(C)n1)c1cccc(C)n1 (mixture of isomers) [Compound 743] | ≥ 70 |
| CC(=NOCC1(CON=C(C)c2cccc(C)n2)CCCC1)c1cccc(C)n1 [Compound 587] | ≥ 70 |
| CC(=NOCC1(CON=C(C)c2cccc(C)n2)CCCCC1)c1cccc(C)n1 [Compound 561] | ≥ 70 |
| C=C(CON=C(CC)c1cccc(C)n1)CON=C(CC)c1cccc(C)n1 [Compound 239] | ≥ 70 |
| CC(=NOCCCON=C(C)c1cc(C)cc(C)n1)c1cc(C)cc(C)n1 [Compound 224] | ≥ 70 |

Tested on: Alternaria solani
Assay: Alternaria test (tomato)/protective
Type: in vivo
Conditions: active compound concentration 500 ppm, protective, evaluation 7 days after inoculation

| Compound | efficacy [%] |
| --- | --- |
| CC(=NOCC1(CON=C(C)c2cccc(C)n2)CCC1)c1cccc(C)n1 [Compound 289] | ≥ 70 |
| CC(=NOCC(C)(C)CON=C(C)c1cccc(C)n1)c1cccc(C)n1 (single isomer, unassigned) [Compound 141] | ≥ 70 |
| CCCc1cccc(C(C)=NOCC(C)CON=C(C)c2cccc(C)n2)n1 (stereo not drawn) [Compound 502] | ≥ 70 |
| CC(=NOC(C)C(C)C(C)ON=C(C)c1cccc(C)n1)c1cccc(C)n1 (mixture of isomers) [Compound 743] | ≥ 70 |
| CC(=NOCC1(CON=C(C)c2cccc(C)n2)CCCC1)c1cccc(C)n1 [Compound 587] | ≥ 70 |
| CC(=NOCC1(CON=C(C)c2cccc(C)n2)CCCCC1)c1cccc(C)n1 [Compound 561] | ≥ 70 |
| C=C(CON=C(CC)c1cccc(C)n1)CON=C(CC)c1cccc(C)n1 [Compound 239] | ≥ 70 |
| CC(=NOCCCON=C(C)c1cc(C)cc(C)n1)c1cc(C)cc(C)n1 [Compound 224] | ≥ 70 |

Tested on: Sphaerotheca fuliginea
Assay: Sphaerotheca test (cucumber)/protective
Type: in vivo
Conditions: active compound concentration 500 ppm, protective, evaluation 7 days after inoculation

| Compound | efficacy [%] |
| --- | --- |
| CC(=NOCC1(CON=C(C)c2cccc(C)n2)CCC1)c1cccc(C)n1 [Compound 289] | ≥ 70 |
| CC(=NOCC(C)(C)CON=C(C)c1cccc(C)n1)c1cccc(C)n1 (single isomer, unassigned) [Compound 141] | ≥ 70 |
| CC(=NOCC1(CON=C(C)c2cc(C)cc(C)n2)CCC1)c1cc(C)cc(C)n1 [Compound 562] | ≥ 70 |
| CCCc1cccc(C(C)=NOCC(C)CON=C(C)c2cccc(C)n2)n1 (stereo not drawn) [Compound 502] | ≥ 70 |
| CC(=NOC(C)C(C)C(C)ON=C(C)c1cccc(C)n1)c1cccc(C)n1 (mixture of isomers) [Compound 743] | ≥ 70 |
| CC(=NOCC1(CON=C(C)c2cccc(C)n2)CCCC1)c1cccc(C)n1 [Compound 587] | ≥ 70 |
| CC(=NOCC1(CON=C(C)c2cccc(C)n2)CCCCC1)c1cccc(C)n1 [Compound 561] | ≥ 70 |
| C=C(CON=C(CC)c1cccc(C)n1)CON=C(CC)c1cccc(C)n1 [Compound 239] | ≥ 70 |
| CC(=NOCCCON=C(C)c1cc(C)cc(C)n1)c1cc(C)cc(C)n1 [Compound 224] | ≥ 70 |

Tested on: Pyrenophora teres
Assay: Pyrenophora teres test (barley)/protective
Type: in vivo
Conditions: active compound concentration 1000 ppm, protective, evaluation 8 days after inoculation

| Compound | efficacy [%] |
| --- | --- |
| CC(=NOCC1(CON=C(C)c2cccc(C)n2)CCC1)c1cccc(C)n1 [Compound 289] | ≥ 70 |
| CC(=NOCC(C)(C)CON=C(C)c1cccc(C)n1)c1cccc(C)n1 (single isomer, unassigned) [Compound 141] | ≥ 70 |
| CC(=NOCC1(CON=C(C)c2cc(C)cc(C)n2)CCC1)c1cc(C)cc(C)n1 [Compound 562] | ≥ 70 |
| CCCC(=NOCCCON=C(CCC)c1cccc(C)n1)c1cccc(C)n1 [Compound 91] | ≥ 70 |
| CCCc1cccc(C(C)=NOCC(C)CON=C(C)c2cccc(C)n2)n1 (stereo not drawn) [Compound 502] | ≥ 70 |
| CC(=NOC(C)C(C)C(C)ON=C(C)c1cccc(C)n1)c1cccc(C)n1 (mixture of isomers) [Compound 743] | ≥ 70 |
| CC(=NOCC1(CON=C(C)c2cccc(C)n2)CCCC1)c1cccc(C)n1 [Compound 587] | ≥ 70 |
| CC(=NOCC1(CON=C(C)c2cccc(C)n2)CCCCC1)c1cccc(C)n1 [Compound 561] | ≥ 70 |
| C=C(CON=C(CC)c1cccc(C)n1)CON=C(CC)c1cccc(C)n1 [Compound 239] | ≥ 70 |
| CC(=NOCCCON=C(C)c1cc(C)cc(C)n1)c1cc(C)cc(C)n1 [Compound 224] | ≥ 70 |

Tested on: greenhouse red spidermite (Tetranychus urticae)
Assay: Tetranychus test, OP-resistant (spray treatment)
Type: in vivo
Conditions: active compound concentration 500 ppm, after 5 days, bean leaf discs

| Compound | efficacy [%] |
| --- | --- |
| C=C(CON=C(C)c1ccc(C(F)(F)F)cn1)CON=C(C)c1ccc(C(F)(F)F)cn1 [Compound 61] | ≥ 85 |
| C=C(CON=C(C)c1ccc(C(F)(F)F)cn1)CON=C(C)c1cccc(C)n1 [Compound 66] | ≥ 85 |

Tested on: Leptosphaeria nodorum
Assay: Leptosphaeria nodorum test (wheat)/protective
Type: in vivo
Conditions: active compound concentration 1000 ppm, protective, evaluation 10 days after inoculation

| Compound | efficacy [%] |
| --- | --- |
| CC(=NOCC1(CON=C(C)c2cccc(C)n2)CCC1)c1cccc(C)n1 [Compound 289] | ≥ 70 |
| CC(=NOCC(C)(C)CON=C(C)c1cccc(C)n1)c1cccc(C)n1 (single isomer, unassigned) [Compound 141] | ≥ 70 |
| CC(=NOCC1(CON=C(C)c2cc(C)cc(C)n2)CCC1)c1cc(C)cc(C)n1 [Compound 562] | ≥ 70 |
| CCCC(=NOCCCON=C(CCC)c1cccc(C)n1)c1cccc(C)n1 [Compound 91] | ≥ 70 |
| CCCc1cccc(C(C)=NOCC(C)CON=C(C)c2cccc(C)n2)n1 (stereo not drawn) [Compound 502] | ≥ 70 |
| CC(=NOC(C)C(C)C(C)ON=C(C)c1cccc(C)n1)c1cccc(C)n1 (mixture of isomers) [Compound 743] | ≥ 70 |
| CC(=NOCC1(CON=C(C)c2cccc(C)n2)CCCC1)c1cccc(C)n1 [Compound 587] | ≥ 70 |
| CC(=NOCC1(CON=C(C)c2cccc(C)n2)CCCCC1)c1cccc(C)n1 [Compound 561] | ≥ 70 |
| C=C(CON=C(CC)c1cccc(C)n1)CON=C(CC)c1cccc(C)n1 [Compound 239] | ≥ 70 |
| CC(=NOCCCON=C(C)c1cc(C)cc(C)n1)c1cc(C)cc(C)n1 [Compound 224] | ≥ 70 |

Tested on: Leptosphaeria maculans
Assay: Leptosphaeria Maculans Test (Cereal)/Seed Treatment
Type: in vivo
Conditions: 50 g/100 kg of seed; seed treatment; evaluation after about 3 weeks

| Compound | efficacy [%] |
| --- | --- |
| CC(=NOCC1(CON=C(C)c2cccc(C)n2)CCC1)c1cccc(C)n1 [Compound 289] | ≥ 70 |

Tested on: Septoria tritici
Assay: Septoria tritici Test (Cereal)/Seed Treatment
Type: in vivo
Conditions: 50 g/100 kg of seed; seed treatment

| Compound | efficacy [%] |
| --- | --- |
| CC(=NOCC1(CON=C(C)c2cc(C)cc(C)n2)CCC1)c1cc(C)cc(C)n1 [Compound 562] | ≥ 70 |
| CCCC(=NOCCCON=C(CCC)c1cccc(C)n1)c1cccc(C)n1 [Compound 91] | ≥ 70 |

Tested on: not listed separately
Assay: logP determination by HPLC on a reversed-phase column (C 18), EEC Directive 79/831 Annex V.A8
Type: physicochemical
Conditions: method marked [b] in Table 1
Procedure: The stated logP values were determined in accordance with EEC Directive 79/831 Annex V.A8 by HPLC (high performance liquid chromatography) on a reversed-phase column (C 18). Temperature: 43° C.

| Compound | logP |
| --- | --- |
| CC(=NOCc1cccc(CON=C(C)c2cc(C)cc(C)n2)n1)c1cc(C)cc(C)n1 [compound 742] | 1.l77^[b] |
